Results published in the supplement of paper PMC11732987, “Enantioselective OTUD7B fragment discovery through chemoproteomics screening and high-throughput optimisation” (Communications Chemistry, 2025).
The list shows a part of the results. The data scatter; read single values as rough.

What follows are compounds tested against T1, AHI1 C194 (UniProt Q8N157) (assay: log2 mean competition ratio of IA-DTB cysteine labelling (DMSO/compound) (log2 ratio); higher = stronger cysteine engagement by compound). Conditions: 50 µM; treatment time: 4 h; cell line lysate: HEK293T.
T1 sequence (whole entry): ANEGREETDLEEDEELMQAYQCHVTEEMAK
Procedure: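 IA-DTB competitive cysteine chemoproteomics in HEK293T RIPA lysate. Lysates were treated with compound 29 or 30 at 50 or 200 µM for 4 h, then IA-DTB (500 µM, 1 h), trypsin-digested, NeutrAvidin-enriched and analysed by diaPASEF. Competition ratio = intensity DMSO / intensity compound (n=4 treated, n=64 DMSO); binding: mean log2 CR ≥ 1 and p ≤ 0.05 plus QC filters. Target is the cysteine site.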

Compound | log2 mean competition ratio
O=C(CCl)N[C@@H]1CCCc2ccccc21 | -0.258
O=C(CCl)N[C@H]1CCCc2ccccc21 | 0.0866

Same assay, conditions: 200 µM; treatment time: 4 h; cell line lysate: HEK293T

Compound | log2 mean competition ratio
O=C(CCl)N[C@@H]1CCCc2ccccc21 | -0.329
O=C(CCl)N[C@H]1CCCc2ccccc21 | 0.0687
